From PMC8213385, “Development of a Fluorescent Assay to Search New Drugs Using Stable tdTomato-Leishmania, and the Selection of Galangin as a Candidate With Anti-Leishmanial Activity” (Frontiers in Cellular and Infection Microbiology, 2021)

Tested on: intracellular amastigotes of L. amaz/tc3
Test: Fluorescence assay in the macrophage-amastigote model (Raw 264.7 infected with L. amaz/tc3)
Assay type: cell-based, Leishmania (Leishmania) amazonensis
Details: infected Raw 264.7 macrophages
Experimental: Furthermore, the efficacy of MI was also determined against intracellular amastigotes of L. amaz/tc3 and L. amaz/wt. Raw 264.7 macrophages were plated in 96-well black plate (5 x 10^4 cells/well) and in eight well Lab-Tek tissue culture slides (6.6 x 10^4 cells/ml) (Nunc, USA). The cells were infected with promastigotes in stationary phase of L. amaz/tc3 and L. amaz/wt (1:20 ratio) at 33°C, 5% CO2. After incubation, the infected macrophages were washed to remove non-internalized parasites with PBS plus P-S. New RPMI-1640 medium with different concentrations of MI (20 to 0.62 µg/ml) was added to each well and incubated at 33°C, 5% CO2 during 48 h. The anti-leishmanial activity of MI was determined by measuring the fluorescence of intracellular amastigotes of L. amaz/tc3 in a plate reader (Tecan, Männedorf, Switzerland). The viability was calculated as mentioned above, and the IC50 was also estimated. Simultaneously, the leishmanicidal activity of MI against L. amaz/wt was determined by the microscopy test. In this case, the infected macrophages were stained with Diff Quik (Biopur S.R.L., Rosario, Argentina) and the number of intracellular amastigotes was determined in 200-500 macrophages in treated and control cultures per slide under the immersion lens microscope (100x) (Leitz Wetzlar, Germany). The infection index (II) and the % infectivity (I) were calculated by the following formulas: II = IM × A, where IM= infected macrophages (%), A= number of amastigotes per infected macrophages; and I(%)=IIT/IIc×100, where IIT= infection index in treated cultures, IIC= infection index in control cultures ([Ayres et al., 2008]). The IC50 of MI was calculated.
The flavonoids anti-leishmanial activity was also evaluated against intracellular amastigotes. […] After treatment, the fluorescence of intracellular amastigotes of L. amaz/tc3 was measured in a plate reader (Tecan, Männedorf, Switzerland). The viability was determined as was described for MI (fluorescent assay). The selectivity index (SI) (CC50 for macrophages/IC50 for Leishmania) was calculated.

| Compound | Concentration at which background fluorescence increased (interference with tdTomato readout) [µM] |
| --- | --- |
| O=c1c(O)c(-c2ccc(O)cc2O)oc2cc(O)cc(O)c12 [MO, morin] | ≥ 75 |
| O=c1c(O)c(-c2ccc(O)c(O)c2)oc2cc(O)ccc12 [FI, fisetin] | ≥ 30 |
| O=c1c(O)c(-c2ccccc2)oc2cc(O)cc(O)c12 [GAL, Galangin] | ≥ 30 |
